Data on 69 sequences can be found in PubChem BioAssay AID1347426 (Functional Genomics Laboratory (NCATS/FGL), 2020).

Hit rate of the full screen: of about 31,000 sequences, about 1,400 (4.5%) were called active.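 Rule for the calls: active = median seed-adjusted z-score above 1 or below -1; inactive = the rest.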 Some of the results follow.

This assay in a line: Novel Modifiers of Survival Motor Neuron (SMN) Protein: Gene Identification via Genome-wide siRNA Screen.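 Note: luminescence tracks full-length SMN protein made from the SMN2 reporter.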 Particulars: HEK293T SMN2-luciferase reporter, siRNA knockdown, 72 h; actives lie on both sides. In a few lines: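 HEK293T cells stably expressing an SMN2 splicing/cDNA-luciferase reporter were reverse-transfected with a druggable-genome siRNA library and read by luminescence at 72 hours; hits defined by MAD score above 1.0 or below -1.0.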
On the technique in general: A reporter such as luciferase makes a cellular process visible.
On to GGUUUAAGCCGAAAGCACATT against KCNAB3, for which the median seed-adjusted z-score is inactive: 0.0697.

With GCAUUGCCGAGAUCCAUGATT against PIK3R2, the median seed-adjusted z-score is inactive: 0.421. In the case of GCUGCCGACUAAGCAUUGATT against PAX8 it was inactive: 0; in that of GAUCUUAGCUGGACGAGAATT against STOML3, inactive: -0.0711. Next, GGAUGAAGAGAUACCUUUUTT against ZNF772: inactive: 0.817; CGCAUCAUCUCAACAAUCATT against KCNK2: inactive: 0.257; GACCGGCAUUGAUCAAUCATT against MYO1B: inactive: 0.903. Turning to GGAUAAAUAUGCAUUGGAATT against PTPN21, the median seed-adjusted z-score is inactive: 0. Consider GGAGAGUGUUUGAUAUGUUTT against EIF4A2, for which the median seed-adjusted z-score was inactive: 0.

Regarding GGAUGGAGACAACGACAAATT against ANGPT2, the median seed-adjusted z-score was inactive: -0.163.

On to GGACAUACGCAGCACCAUATT against ZMAT1, for which the median seed-adjusted z-score is inactive: -0.123.

CGGGAUUUAUAGGCAAUGATT against RNASEH1: the median seed-adjusted z-score was inactive: -0.0205. In the case of CAGGUGAUCUGGACCAAGATT against LCP1, the median seed-adjusted z-score is inactive: -0.386. With AGUGCAACGUGUUCGUCUATT against PPP2R2D, the median seed-adjusted z-score was inactive: -0.118. On to CAUUCGGCCUCUACCCAAATT against DNAJC13, for which the median seed-adjusted z-score is inactive: -0.12. Next, CUCUCUACACGACUACAAATT against JUNB: inactive: -0.224; GGAUAACUGGAACUAUACATT against TNKS: inactive: 0.193.

As for UGCUGACUUUUAACCCACATT against CDK4, the median seed-adjusted z-score is inactive: 0.346. As to GCAUGAGGUUCACCACCAATT against FIBCD1, the median seed-adjusted z-score is inactive: -0.0249. In the case of GGGUUGAUCAGCUUAGUCATT against PPP1R13B it was inactive: 0.0943.

ACAUAGCGACGGUAGUGAATT against STK32B: the median seed-adjusted z-score was inactive: 0.683. In the case of GCAAUGCACUGACGGAUAUTT against EFEMP1 it was inactive: 0.0157; in that of CCACGGAUCUGGUCAGAAUTT against PHYH, inactive: 0.208. In the case of CAUUAGUAGUCAGCAAGUATT against THAP2, the median seed-adjusted z-score was inactive: -0.273. With GAUCGUGCUCAUUAAUUCATT against SLC29A1, the median seed-adjusted z-score was inactive: 0.117.

For CCAGCGGAAUUUAUGCGUATT against JAK2, the median seed-adjusted z-score is inactive: 0.163. Consider CCUCCAAUCAAAUCAGUCATT against KCNK2, for which the median seed-adjusted z-score is inactive: 0.257. Consider CCAUCGUAUGUAACACUGUTT against CLSTN3, for which the median seed-adjusted z-score was inactive: 0. In the case of CACUGGAUCGUAUCUACAATT against ANAPC2, the median seed-adjusted z-score was inactive: -0.116. CUUCAUAUUUGACACCUAUTT against SLC25A26: the median seed-adjusted z-score is inactive: 0.0213. In the case of UGUGGACUGAGGUACCCAATT against SNRPD2 it was inactive: -0.849; in that of GGCAGAUAUUUAAGCCUAUTT against HDAC2, active: -1.27.

For GAACAUGUCUUUAACGGAUTT against TJP2, the median seed-adjusted z-score is inactive: 0.0668.

On to CACGGUCUGUUCUCAGAUUTT against MXD4, for which the median seed-adjusted z-score is inactive: 0.688. In the case of CAGAAGAACUGAGCUAUUUTT against GOSR1 it was inactive: -0.252. In the case of GCAUCGACAUGGUUUCCGATT against GABRB3, the median seed-adjusted z-score was inactive: 0.0757. Regarding AGCUCACGCUGUGCAUGUGTT against TREX2, the median seed-adjusted z-score was inactive: -0.918.

Regarding GGUUGAUUACUCUAACAAATT against PLK2, the median seed-adjusted z-score was inactive: -0.419.

In the case of CAAGGACUUCUGUAAUUUUTT against DMRT2, the median seed-adjusted z-score is inactive: -0.344. Turning to GCUUGCACUUAAUCUCACATT against LAMB2, the median seed-adjusted z-score was active: 1.12. Take GCAGUGCUCCGUAGGAUCATT against PNCK: the median seed-adjusted z-score is inactive: 0. In the case of GCGAGCCGCUUAUGUGGAATT against TCF21 it was inactive: -0.15; in that of GACUAUAAGUUUUCGGAGUTT against ACOT9, inactive: 0.58. In the case of GAAAUAGGGCAGAAACAGATT against PARVB it was inactive: -0.0102; in that of GGAUGACGAUUGUUUAUCATT against BCL11A, inactive: 0.297; in that of AGAUGUUAUUUAUUGAGCUTT against PKIG, inactive: 0.0916. In the case of GGAGAUAACUUUCGUAUCATT against CBLB it was inactive: 0; in that of CCUUUGCUCCGGAAUCUCUTT against SOX12, inactive: 0.478. GGAUAGUGAGGAUAAGGAATT against PPP1R15A: the median seed-adjusted z-score was inactive: 0.539.

With CGUGUUCCAUAUAGAGGAATT against CAPN1, the median seed-adjusted z-score was inactive: 0.282. In the case of ACGAUCCUCUCAAUCAAAATT against MBD2 it was inactive: -0.067; in that of GUUCGAAUGUCACCAGUUATT against RTCD1, inactive: 0.0794; in that of GCUCUGUGAUUAGAUUGAATT against HEY2, inactive: -0.0831. With GCGCAUGCAUAAGAAUCGATT against ZNF687, the median seed-adjusted z-score is inactive: 0. For the sequence UCUCUUACCUGGGACCUCATT against FUT3, the median seed-adjusted z-score was inactive: 0.11. In the case of GGACACAUCUCGGACAGCATT against KLK9 it was inactive: -0.476; in that of CCAUGAGUGUGACUCUCAATT against ZNF599, inactive: 0.0896; in that of CGGCCUGUUCCUCUACGUATT against SLC39A4, inactive: 0.0304.

Turning to CUUUUUACGUGAGCGUAUATT against NAP1L1, the median seed-adjusted z-score was inactive: 0.263. Next, AGACCCUGAUUGUGCGUAUTT against SYT6: inactive: -0.072; AGCCUCUCAUAGUACCUGATT against FBLN2: inactive: 0.176; AGCGUAAGCUGAUUGAGCATT against THRA: inactive: 0.13. In the case of GCCUCGUGAAGAACACUCATT against CYP1A2 it was inactive: 0; in that of GGUUUCAUCCUAGAUCAAATT against MS4A5, inactive: 0.226; in that of UCUCCUUCUUCGGAACGAATT against SCAMP5, inactive: -0.303. In the case of CUACCUUAUGAAUACUAUUTT against TM9SF4 it was inactive: -0.0191.

GGAGAUAAGUGUAAGUUCUTT against ZC3H15: the median seed-adjusted z-score was inactive: 0.191. As to CUACAGAAUUUCUUGCGCATT against RASSF3, the median seed-adjusted z-score was inactive: -0.323. Next, GGAACGAGGUGUCAGCUCUTT against RFXANK: inactive: -0.0665.
